The list shows a part of the results.

Sequences of proteins named here, by UniProt entry; tags and fusion partners are left off. A change or cut given only in a name is not applied to a line headed by its entry.
UniProt Q14696: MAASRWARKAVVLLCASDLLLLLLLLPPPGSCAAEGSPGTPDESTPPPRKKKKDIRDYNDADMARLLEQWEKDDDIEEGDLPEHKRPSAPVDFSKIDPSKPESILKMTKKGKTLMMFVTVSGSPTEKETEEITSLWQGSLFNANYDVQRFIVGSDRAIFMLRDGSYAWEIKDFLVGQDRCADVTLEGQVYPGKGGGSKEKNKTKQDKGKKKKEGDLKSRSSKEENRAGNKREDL
UniProt Q9H8H3: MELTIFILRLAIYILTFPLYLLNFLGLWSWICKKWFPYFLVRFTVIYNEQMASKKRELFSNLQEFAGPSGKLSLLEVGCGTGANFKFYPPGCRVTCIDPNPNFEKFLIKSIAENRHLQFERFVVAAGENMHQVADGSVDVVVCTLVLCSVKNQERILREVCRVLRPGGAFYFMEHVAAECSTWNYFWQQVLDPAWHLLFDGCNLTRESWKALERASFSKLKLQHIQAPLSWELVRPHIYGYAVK
UniProt Q9NZL9, whole entry, looked up: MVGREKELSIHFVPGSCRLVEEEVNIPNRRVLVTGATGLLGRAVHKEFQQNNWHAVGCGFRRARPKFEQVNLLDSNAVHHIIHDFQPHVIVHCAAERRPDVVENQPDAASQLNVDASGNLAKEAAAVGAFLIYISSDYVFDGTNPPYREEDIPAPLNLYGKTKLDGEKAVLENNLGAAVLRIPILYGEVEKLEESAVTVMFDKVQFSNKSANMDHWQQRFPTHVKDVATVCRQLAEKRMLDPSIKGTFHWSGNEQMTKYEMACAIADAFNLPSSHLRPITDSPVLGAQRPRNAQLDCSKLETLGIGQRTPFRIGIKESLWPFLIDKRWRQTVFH
UniProt Q8WXB1: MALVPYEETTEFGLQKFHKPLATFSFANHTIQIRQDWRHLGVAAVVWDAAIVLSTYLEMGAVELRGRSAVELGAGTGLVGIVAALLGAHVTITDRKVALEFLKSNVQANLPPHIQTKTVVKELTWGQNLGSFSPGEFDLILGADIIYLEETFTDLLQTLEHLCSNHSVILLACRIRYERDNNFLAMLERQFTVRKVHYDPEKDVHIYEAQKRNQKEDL
UniProt Q12866: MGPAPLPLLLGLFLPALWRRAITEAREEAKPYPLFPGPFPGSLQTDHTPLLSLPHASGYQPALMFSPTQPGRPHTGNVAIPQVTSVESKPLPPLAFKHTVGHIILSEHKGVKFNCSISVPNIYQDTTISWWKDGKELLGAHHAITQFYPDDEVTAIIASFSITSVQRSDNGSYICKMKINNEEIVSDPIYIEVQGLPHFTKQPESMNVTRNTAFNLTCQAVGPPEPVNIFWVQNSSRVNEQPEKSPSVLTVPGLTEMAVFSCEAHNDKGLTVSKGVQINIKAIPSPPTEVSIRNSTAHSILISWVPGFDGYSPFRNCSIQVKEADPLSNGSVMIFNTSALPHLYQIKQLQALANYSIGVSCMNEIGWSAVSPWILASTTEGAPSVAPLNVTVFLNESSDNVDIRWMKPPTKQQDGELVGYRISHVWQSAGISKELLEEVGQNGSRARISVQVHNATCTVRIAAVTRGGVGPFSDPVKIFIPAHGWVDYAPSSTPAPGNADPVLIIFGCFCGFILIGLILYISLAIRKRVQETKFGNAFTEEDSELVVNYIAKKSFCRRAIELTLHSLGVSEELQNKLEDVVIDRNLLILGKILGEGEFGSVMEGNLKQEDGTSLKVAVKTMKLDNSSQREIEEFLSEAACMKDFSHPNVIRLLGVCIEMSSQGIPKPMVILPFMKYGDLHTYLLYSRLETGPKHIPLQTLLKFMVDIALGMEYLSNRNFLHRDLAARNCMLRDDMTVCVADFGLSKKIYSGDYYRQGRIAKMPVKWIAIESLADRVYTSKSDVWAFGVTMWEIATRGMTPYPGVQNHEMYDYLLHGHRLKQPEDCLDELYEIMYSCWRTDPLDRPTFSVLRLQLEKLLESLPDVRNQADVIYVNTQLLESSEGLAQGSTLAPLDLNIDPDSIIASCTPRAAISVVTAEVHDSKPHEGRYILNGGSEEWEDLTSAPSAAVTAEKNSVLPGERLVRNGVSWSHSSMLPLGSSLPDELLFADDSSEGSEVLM
UniProt Q8TCB7: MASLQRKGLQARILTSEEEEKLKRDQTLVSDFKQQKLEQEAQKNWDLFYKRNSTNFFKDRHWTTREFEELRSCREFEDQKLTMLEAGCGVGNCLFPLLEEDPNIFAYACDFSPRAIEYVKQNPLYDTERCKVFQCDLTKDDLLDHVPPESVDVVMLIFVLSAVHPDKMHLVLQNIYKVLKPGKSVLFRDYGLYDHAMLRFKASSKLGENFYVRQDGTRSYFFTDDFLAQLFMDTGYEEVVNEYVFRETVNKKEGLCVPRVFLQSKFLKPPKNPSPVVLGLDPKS
UniProt Q9BUE0: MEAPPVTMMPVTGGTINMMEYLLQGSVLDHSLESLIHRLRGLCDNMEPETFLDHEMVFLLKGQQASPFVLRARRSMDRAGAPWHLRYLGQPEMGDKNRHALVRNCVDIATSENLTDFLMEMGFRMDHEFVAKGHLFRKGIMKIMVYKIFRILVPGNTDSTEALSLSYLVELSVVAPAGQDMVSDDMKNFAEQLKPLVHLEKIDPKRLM
UniProt P55081: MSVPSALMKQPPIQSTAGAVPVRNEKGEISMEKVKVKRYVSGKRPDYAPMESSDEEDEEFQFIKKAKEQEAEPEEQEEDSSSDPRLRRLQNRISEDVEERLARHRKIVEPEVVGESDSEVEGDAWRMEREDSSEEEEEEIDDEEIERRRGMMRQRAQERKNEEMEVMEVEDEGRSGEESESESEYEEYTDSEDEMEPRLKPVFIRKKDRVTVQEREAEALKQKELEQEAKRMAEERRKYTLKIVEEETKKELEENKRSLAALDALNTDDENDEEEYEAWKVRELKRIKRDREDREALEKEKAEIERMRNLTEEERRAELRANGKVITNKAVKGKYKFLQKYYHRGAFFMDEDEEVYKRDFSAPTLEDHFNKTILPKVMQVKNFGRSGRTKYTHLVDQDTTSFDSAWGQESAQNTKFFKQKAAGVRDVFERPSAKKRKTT
UniProt Q9UQ53: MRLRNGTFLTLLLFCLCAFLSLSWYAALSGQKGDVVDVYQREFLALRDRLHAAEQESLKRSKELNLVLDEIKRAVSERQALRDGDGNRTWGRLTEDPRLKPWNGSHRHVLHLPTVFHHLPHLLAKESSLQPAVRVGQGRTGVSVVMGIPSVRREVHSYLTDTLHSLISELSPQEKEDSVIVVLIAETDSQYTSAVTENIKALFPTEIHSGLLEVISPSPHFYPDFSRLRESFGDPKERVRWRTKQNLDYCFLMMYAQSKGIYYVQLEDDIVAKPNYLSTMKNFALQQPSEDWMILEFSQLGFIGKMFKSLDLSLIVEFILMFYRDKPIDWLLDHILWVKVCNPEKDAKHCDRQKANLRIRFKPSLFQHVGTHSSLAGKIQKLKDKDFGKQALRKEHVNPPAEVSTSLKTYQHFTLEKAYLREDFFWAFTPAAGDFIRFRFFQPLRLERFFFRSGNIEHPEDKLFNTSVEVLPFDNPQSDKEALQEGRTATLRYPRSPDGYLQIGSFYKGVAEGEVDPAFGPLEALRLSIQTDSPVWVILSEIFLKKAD
UniProt P50579: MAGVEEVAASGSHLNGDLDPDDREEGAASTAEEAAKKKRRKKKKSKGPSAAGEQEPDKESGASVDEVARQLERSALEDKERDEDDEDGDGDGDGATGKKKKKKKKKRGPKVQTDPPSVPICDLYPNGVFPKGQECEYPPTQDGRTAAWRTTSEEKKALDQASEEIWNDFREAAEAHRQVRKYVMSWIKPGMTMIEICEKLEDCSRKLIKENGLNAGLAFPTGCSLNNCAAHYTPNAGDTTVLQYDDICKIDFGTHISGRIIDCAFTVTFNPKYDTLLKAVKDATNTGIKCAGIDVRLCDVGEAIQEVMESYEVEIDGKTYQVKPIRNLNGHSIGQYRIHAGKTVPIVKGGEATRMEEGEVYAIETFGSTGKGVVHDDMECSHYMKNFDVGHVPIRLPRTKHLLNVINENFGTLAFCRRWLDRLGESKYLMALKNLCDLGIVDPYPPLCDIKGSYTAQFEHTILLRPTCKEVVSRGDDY
UniProt Q9BUT9: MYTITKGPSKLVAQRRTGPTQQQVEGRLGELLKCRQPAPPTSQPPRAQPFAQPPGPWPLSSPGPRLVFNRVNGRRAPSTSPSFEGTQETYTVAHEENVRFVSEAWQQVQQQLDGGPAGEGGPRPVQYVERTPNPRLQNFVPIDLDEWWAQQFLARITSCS
UniProt Q5SR56: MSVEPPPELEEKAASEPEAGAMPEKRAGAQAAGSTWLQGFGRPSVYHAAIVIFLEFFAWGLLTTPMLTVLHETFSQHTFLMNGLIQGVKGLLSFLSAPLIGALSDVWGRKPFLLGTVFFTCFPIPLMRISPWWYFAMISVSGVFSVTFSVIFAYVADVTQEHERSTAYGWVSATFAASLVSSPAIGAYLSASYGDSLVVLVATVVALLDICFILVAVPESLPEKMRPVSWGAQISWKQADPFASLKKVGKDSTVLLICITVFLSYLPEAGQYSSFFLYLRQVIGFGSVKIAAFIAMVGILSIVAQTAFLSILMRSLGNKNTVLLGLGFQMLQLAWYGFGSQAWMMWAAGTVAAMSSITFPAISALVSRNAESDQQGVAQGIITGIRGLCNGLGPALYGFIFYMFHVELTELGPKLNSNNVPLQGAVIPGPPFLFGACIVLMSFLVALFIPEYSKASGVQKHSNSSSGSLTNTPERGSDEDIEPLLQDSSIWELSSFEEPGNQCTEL
UniProt Q8N6Q8: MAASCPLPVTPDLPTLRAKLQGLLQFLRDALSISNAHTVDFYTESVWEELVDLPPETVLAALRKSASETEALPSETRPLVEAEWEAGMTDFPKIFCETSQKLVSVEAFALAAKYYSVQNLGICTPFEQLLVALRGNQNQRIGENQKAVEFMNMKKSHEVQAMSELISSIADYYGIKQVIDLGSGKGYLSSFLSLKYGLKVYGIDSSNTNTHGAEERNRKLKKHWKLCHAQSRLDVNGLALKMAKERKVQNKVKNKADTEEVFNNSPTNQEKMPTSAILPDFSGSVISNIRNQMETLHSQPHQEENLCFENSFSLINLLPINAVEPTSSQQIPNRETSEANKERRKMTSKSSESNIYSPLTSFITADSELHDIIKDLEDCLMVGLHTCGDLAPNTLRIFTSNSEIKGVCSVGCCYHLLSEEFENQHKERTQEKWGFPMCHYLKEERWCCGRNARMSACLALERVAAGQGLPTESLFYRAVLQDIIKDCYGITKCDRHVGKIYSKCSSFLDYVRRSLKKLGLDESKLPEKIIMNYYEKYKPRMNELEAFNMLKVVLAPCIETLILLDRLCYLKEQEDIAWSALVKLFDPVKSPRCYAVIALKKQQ
UniProt Q9BTT4: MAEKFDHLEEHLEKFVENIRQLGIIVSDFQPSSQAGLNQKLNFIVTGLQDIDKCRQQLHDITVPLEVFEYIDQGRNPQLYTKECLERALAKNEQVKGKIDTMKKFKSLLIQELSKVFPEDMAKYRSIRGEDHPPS
UniProt Q86YT6, whole entry, looked up: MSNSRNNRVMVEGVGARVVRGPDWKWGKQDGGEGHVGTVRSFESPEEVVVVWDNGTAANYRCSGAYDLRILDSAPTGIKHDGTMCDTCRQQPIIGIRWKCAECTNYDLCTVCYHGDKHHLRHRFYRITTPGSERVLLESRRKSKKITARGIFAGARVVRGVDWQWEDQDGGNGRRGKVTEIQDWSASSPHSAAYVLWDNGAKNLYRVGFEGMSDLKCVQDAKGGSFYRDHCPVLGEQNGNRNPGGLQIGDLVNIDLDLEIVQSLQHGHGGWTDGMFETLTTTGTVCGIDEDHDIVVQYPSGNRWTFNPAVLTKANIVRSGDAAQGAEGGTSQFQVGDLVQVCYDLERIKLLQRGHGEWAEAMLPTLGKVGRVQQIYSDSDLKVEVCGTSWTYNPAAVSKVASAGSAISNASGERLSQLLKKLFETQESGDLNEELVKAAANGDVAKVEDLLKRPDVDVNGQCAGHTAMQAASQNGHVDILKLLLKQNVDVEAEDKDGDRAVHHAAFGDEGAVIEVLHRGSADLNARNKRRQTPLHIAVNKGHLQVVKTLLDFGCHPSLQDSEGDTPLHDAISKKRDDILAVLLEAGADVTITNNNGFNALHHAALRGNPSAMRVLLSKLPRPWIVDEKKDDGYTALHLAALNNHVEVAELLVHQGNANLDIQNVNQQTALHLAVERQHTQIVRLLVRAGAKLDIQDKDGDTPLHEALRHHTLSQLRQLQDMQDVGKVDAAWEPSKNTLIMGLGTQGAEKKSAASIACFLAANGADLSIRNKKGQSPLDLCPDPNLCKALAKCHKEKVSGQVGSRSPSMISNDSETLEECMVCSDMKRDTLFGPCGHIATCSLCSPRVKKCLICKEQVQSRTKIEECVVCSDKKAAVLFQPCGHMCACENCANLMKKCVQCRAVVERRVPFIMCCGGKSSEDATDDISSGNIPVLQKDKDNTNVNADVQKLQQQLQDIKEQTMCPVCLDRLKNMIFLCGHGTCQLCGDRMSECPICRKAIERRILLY
UniProt O14880: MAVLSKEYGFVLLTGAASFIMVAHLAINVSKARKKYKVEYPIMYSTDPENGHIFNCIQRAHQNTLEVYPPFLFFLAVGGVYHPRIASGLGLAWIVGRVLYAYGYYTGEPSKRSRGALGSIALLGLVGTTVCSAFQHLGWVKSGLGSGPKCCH

Compound in one assay: C[C@H](Nc1ncnc2nc[nH]c12)c1cc2cccc(Cl)c2c(=O)n1-c1ccccc1 [duvelisib]
Nature of the assay: log2 fold change, soluble protein after heating vs DMSO (PISA); higher = thermal stabilisation; K562 cells, 10 uM, 30 min; active = over 0.2 and 3.5 SD of the protein, either way, in both replicates (recomputed). The essentials:
(§1)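 Soluble protein was quantified by TMTpro 16plex LC-MS/MS after channel sums were equalised. It was obtained as the supernatant after 21,000xg for 90 min from pooled aliquots of K562 cells (2×10^6 cells/mL, 10 μM compound, 30 min) heated for 3 min across 48°C-58°C and extracted in PBS with 0.5% NP-40 at 4°C. Thermal stability values are relative to control samples and come from duplicates. They are given as log2 fold changes.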
As for MCM2 (UniProt P49736), the log2 fold change is inactive: 0.005.

Take MESD (UniProt Q14696): the log2 fold change was inactive: -0.038.

Turning to MCRIP1 (UniProt I3L4Q0), the log2 fold change is inactive: 0.073.

Consider MED23 (UniProt Q9ULK4), for which the log2 fold change is inactive: -0.036.

With METTL7A (UniProt Q9H8H3), the log2 fold change is inactive: 0.041.

MCM5 (UniProt P33992): the log2 fold change is inactive: 0.

As for METTL5 (UniProt Q9NRN9), the log2 fold change is inactive: 0.022.

For MECR (UniProt Q9BV79), the log2 fold change was inactive: 0.107.

With METTL2B (UniProt Q6P1Q9), the log2 fold change is inactive: -0.048.

In the case of MBOAT1 (UniProt Q6ZNC8), the log2 fold change was inactive: 0.059.

For MEF2C isoform 5 (UniProt Q06413), the log2 fold change was inactive: -0.069.

With MAT2B (UniProt Q9NZL9), the log2 fold change was inactive: 0.027.

For the target METTL21A (UniProt Q8WXB1), the log2 fold change was inactive: 0.009.

As for MERTK (UniProt Q12866), the log2 fold change was inactive: 0.082.

For the target MCM3 isoform 2 (UniProt P25205), the log2 fold change is inactive: 0.002.

As to MED30 (UniProt Q96HR3), the log2 fold change was inactive: -0.025.

In the case of METTL6 (UniProt Q8TCB7), the log2 fold change was inactive: 0.064.

Regarding MED18 (UniProt Q9BUE0), the log2 fold change is inactive: -0.024.

Regarding MFAP1 (UniProt P55081), the log2 fold change was inactive: -0.008.

Turning to MCCC1 (UniProt Q96RQ3), the log2 fold change is inactive: 0.

MGAT4B isoform 3 (UniProt Q9UQ53): the log2 fold change was inactive: 0.022.

In the case of MED14 (UniProt O60244), the log2 fold change is inactive: 0.021.

On to MFSD10 (UniProt Q14728), for which the log2 fold change is inactive: 0.125.

As for METAP1 (UniProt P53582), the log2 fold change is inactive: 0.069.

For the target METAP2 (UniProt P50579), the log2 fold change is inactive: 0.016.

Take MCRIP2 (UniProt Q9BUT9): the log2 fold change is inactive: -0.165.

Regarding MBNL1 (UniProt Q9NR56), the log2 fold change is inactive: -0.066.

As to MEAF6 isoform 3 (UniProt Q9HAF1), the log2 fold change is inactive: 0.013.

Take MFSD14B (UniProt Q5SR56): the log2 fold change was inactive: 0.12.

As for MBD3 (UniProt O95983), the log2 fold change is inactive: -0.012.

For MED15 (UniProt Q96RN5), the log2 fold change is inactive: 0.004.

As to MED24 (UniProt O75448), the log2 fold change is inactive: -0.015.

For the target MEF2D (UniProt Q14814), the log2 fold change is inactive: 0.047.

METTL25 (UniProt Q8N6Q8): the log2 fold change was inactive: 0.267.

As for MED10 (UniProt Q9BTT4), the log2 fold change was inactive: 0.172.

Compound in the next assay: Cc1cc(Nc2cc(CN3CCOCC3)c3nc(C)c(Cc4ccc(Cl)cc4F)n3n2)n[nH]1 [gandotinib]
Described as above. The method, boiled down: as §1
Take MIB1 (UniProt Q86YT6): the log2 fold change is inactive: 0.025.

For the target MCM2 (UniProt P49736), the log2 fold change is inactive: -0.126.

In the case of MESD (UniProt Q14696), the log2 fold change is inactive: -0.027.

Regarding MCRIP1 (UniProt I3L4Q0), the log2 fold change was inactive: -0.018.

With MDN1 (UniProt Q9NU22), the log2 fold change is inactive: -0.156.

In the case of MED23 (UniProt Q9ULK4), the log2 fold change is inactive: -0.11.

Consider METTL7A (UniProt Q9H8H3), for which the log2 fold change was inactive: 0.018.

As for MCM5 (UniProt P33992), the log2 fold change was inactive: -0.046.

For the target METTL5 (UniProt Q9NRN9), the log2 fold change is inactive: 0.036.

As for MECR (UniProt Q9BV79), the log2 fold change is inactive: -0.057.

For the target METTL2B (UniProt Q6P1Q9), the log2 fold change was inactive: -0.229.

As for MEF2C isoform 5 (UniProt Q06413), the log2 fold change was inactive: -0.149.

For the target MAT2B (UniProt Q9NZL9), the log2 fold change was inactive: 0.028.

On to METTL21A (UniProt Q8WXB1), for which the log2 fold change is inactive: -0.048.

For the target MCM3 isoform 2 (UniProt P25205), the log2 fold change is inactive: -0.046.

Consider MCCC2 (UniProt Q9HCC0), for which the log2 fold change is inactive: 0.051.

As to METTL6 (UniProt Q8TCB7), the log2 fold change was inactive: 0.024.

Turning to MED18 (UniProt Q9BUE0), the log2 fold change is inactive: -0.046.

Take MFAP1 (UniProt P55081): the log2 fold change is inactive: 0.125.

Consider MCCC1 (UniProt Q96RQ3), for which the log2 fold change was inactive: -0.126.

As for MGAT4B isoform 3 (UniProt Q9UQ53), the log2 fold change is inactive: -0.001.

MED14 (UniProt O60244): the log2 fold change was inactive: -0.05.

With MFSD10 (UniProt Q14728), the log2 fold change is inactive: 0.

For METAP1 (UniProt P53582), the log2 fold change was inactive: 0.073.

Consider MGST3 (UniProt O14880), for which the log2 fold change is inactive: -0.006.

Consider METAP2 (UniProt P50579), for which the log2 fold change is inactive: 0.052.

With MCRIP2 (UniProt Q9BUT9), the log2 fold change is inactive: -0.026.

As to MBNL1 (UniProt Q9NR56), the log2 fold change is inactive: -0.004.

In the case of MEAF6 isoform 3 (UniProt Q9HAF1), the log2 fold change was inactive: 0.03.

Consider MBD3 (UniProt O95983), for which the log2 fold change was inactive: -0.018.

With MED15 (UniProt Q96RN5), the log2 fold change was inactive: -0.121.

As to MED24 (UniProt O75448), the log2 fold change is inactive: -0.236.

As for MEF2D (UniProt Q14814), the log2 fold change was inactive: -0.03.

METTL25 (UniProt Q8N6Q8): the log2 fold change was inactive: -0.161.

On to MED10 (UniProt Q9BTT4), for which the log2 fold change is inactive: 0.018.

Source of the values: the supplement of paper PMC10849652.
